Measured values taken from the supplement of paper PMC3334620.
Over roughly 33,000 sequences, “E-score (-0.5 to 0.5)” has its median near -0.015; the highest 2% begin near 0.3. Some of the results follow.

What follows are sequences tested against T1, Abf1 (UniProt P14164) (assay: PBM E-score (8-mer binding enrichment) (E-score (-0.5 to 0.5)); higher = stronger / more preferred TF binding). Conditions: protein concentration: 200 nM; construct: GST-full length.
T1 sequence: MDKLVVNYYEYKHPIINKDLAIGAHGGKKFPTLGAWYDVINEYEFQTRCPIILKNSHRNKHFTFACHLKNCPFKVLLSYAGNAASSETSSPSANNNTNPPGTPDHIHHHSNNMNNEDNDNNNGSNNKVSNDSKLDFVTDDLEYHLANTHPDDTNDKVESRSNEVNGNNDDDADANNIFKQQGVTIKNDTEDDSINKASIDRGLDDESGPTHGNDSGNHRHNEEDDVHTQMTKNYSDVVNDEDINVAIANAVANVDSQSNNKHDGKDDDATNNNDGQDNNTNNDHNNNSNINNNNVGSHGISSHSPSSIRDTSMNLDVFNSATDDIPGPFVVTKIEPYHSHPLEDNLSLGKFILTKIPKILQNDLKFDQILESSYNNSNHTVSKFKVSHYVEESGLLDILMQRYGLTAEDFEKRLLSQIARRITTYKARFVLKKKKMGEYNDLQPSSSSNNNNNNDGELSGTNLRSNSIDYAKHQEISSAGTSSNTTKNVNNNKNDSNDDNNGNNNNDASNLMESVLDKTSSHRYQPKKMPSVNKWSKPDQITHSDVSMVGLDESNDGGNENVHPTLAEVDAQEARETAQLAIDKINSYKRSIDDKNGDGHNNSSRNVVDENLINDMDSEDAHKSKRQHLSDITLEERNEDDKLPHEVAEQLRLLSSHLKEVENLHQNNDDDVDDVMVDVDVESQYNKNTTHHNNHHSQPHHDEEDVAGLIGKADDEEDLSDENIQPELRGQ
Method in brief: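 Masliner-normalised scans of fluorescent anti-GST signal were the basis for scoring. That signal came from GST-tagged yeast transcription factors applied at about 100-200 nM to double-stranded universal all-10-mer Agilent arrays on fresh or once-stripped slides. Each ungapped eight-base word, pooled with its reverse complement, received an E-score from the Universal PBM Analysis Suite.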

Sequence | PBM E-score
AACGGTTG | -0.0453
ACTCCACA | -0.0769
ATTCGGGC | -0.0543
CTACTCAC | -0.00744
AAAGTGAA | -0.0183
TCCCTAAA | 0.0987
GAGTATAA | 0.0821
AGACGGAA | 0.151
ACGAATTA | 0.236
CCTGGTGA | 0.00561
AAGTGACT | 0.328
AACCCGAC | -0.0287
CAATCTCC | -0.166
CGGGCGGC | -0.294
AGCCCAAA | -0.0828
GGCGCAAA | -0.191
CCCGCCAA | -0.14
GCCAGAGC | -0.317
CGTGGGTC | 0.0419
AGAGGGAC | -0.137
ATGTTTCC | -0.131
CGAAGCGA | 0.103
AAACTCAA | 0.0218
ACAGCAGT | -0.0959
AGCTCGCG | -0.0339

Sequence | PBM E-score
ACGCCGAG | -0.0995
AGGACGCG | -0.102
CACGACCG | -0.0182
GAGTCGGA | -0.0845
GGTGCAAC | -0.0993
ACGTCTGC | -0.0123
ACAAGTTA | 0.0755
AAAAGACG | 0.0107
ATTATCTC | 0.119
CAGTAGAG | -0.209
CTGGCAAG | -0.163
AGCTTATG | 0.0987
ATTGTTAC | 0.111
TAAGGAAA | -0.0606
CGGTTCGA | 0.0347
AGAGCCGG | -0.245
CCGATTCC | -0.146
CCATCGGG | -0.121
AGGTGCAG | -0.0891
AGTTGTGC | -0.108
GGCTGGTA | -0.0983
GATCCACC | 0.0497
AACGTGGT | 0.12
AGAGCCCA | -0.0846
GAATTCTC | 0.164

Sequence | PBM E-score
ATACTGGC | -0.0373
GAAAGCCC | 0.0394
GCTCATAC | -0.069
ATGAAGAA | 0.0138
CCTTAAAA | 0.0216
ATCCATAG | -0.155
CCAGTATA | -0.0548
ATCAAGCA | 0.123
TATGACGA | 0.261
CTGCGGTC | -0.148
AGTCTATG | -0.185
TCATCCGA | 0.219
ACGATATA | 0.289
CACAGAAG | -0.124
CCTCCAAC | 0.0192
ATATAAGC | 0.154
TAATGGGA | -0.0779
ACATGCTC | 0.0343
TAGCAGCA | 0.0823
CCGACGCG | -0.0747
CCGTGCCA | 0.108
GGCAAAAC | -0.0611
CACGAAAC | 0.272
GCAATACC | 0.215
GCTGGTGA | 0.147

Reformatted in CSV form: entries from further up
Sequence,PBM E-score
AGTCTATG,-0.185
TCATCCGA,0.219

Additional records:

Sequence | PBM E-score
CCTAAGCG | -0.0394
AGGACAAC | -0.0182
GCGACCTA | 0.00691
GAAATTTA | 0.261
ATAAAAGG | 0.0301
TCTATTAA | 0.0568
AGTCCAAG | -0.107
GGAAAGAC | -0.127
ATCCTCCA | 0.0824
CTATAGGA | -0.0338
TCTGTTCA | 0.0997
GCTGTGAC | 0.00913
ACGACTAC | 0.329
CTACTACA | 0.0338
ACTATGAG | -0.0276
CGATTGAG | 0.0474
GAATTATA | 0.106
CAACAGTG | 0.0834
ACACCCCA | -0.187
GGAAGAAC | -0.098
AATGTCGA | 0.146
ACCACGGC | 0.00557
CGTTCGAG | 0.121
AGGAGTCA | 0.00134
CGACGACA | 0.311

7 records picked at random from the list so far, as already listed:
Sequence | PBM E-score
CGTTCGAG | 0.121
GGAAAGAC | -0.127
ACCACGGC | 0.00557
TCTATTAA | 0.0568
AATGTCGA | 0.146
CGACGACA | 0.311
CAACAGTG | 0.0834

(next part)

Sequence | PBM E-score
ACACTACG | 0.0258
CAATTGTC | 0.0242
AGTGTCGA | 0.0762
GACTTATA | 0.107
GCATTGTA | -0.0355
ATCTCGGA | 0.114
AAATGCGA | 0.0734
GGCGACGA | 0.194
TTCATAAA | 0.0402
ACAGGAAC | -0.058
CGGGCTTC | -0.21
CCGCCTCG | 0.0539
AGGTTGTA | 0.0799
ACCCACGG | 0.189
ACGTGGCA | -0.181
ACGGCTAA | 0.244
GCAGTCGA | -0.201
TAACTTAA | 0.127
CGCGCCCA | -0.0778
TATCAACA | 0.169
GGCGGTGA | 0.184
ACCTTTAC | -0.0849
GAAATAAC | 0.113
CACGAGTG | 0.0916
AACAGTGC | -0.166

Sequence | PBM E-score
CTTAATAA | 0.0641
GAGACAAA | 0.0148
ACAGAAAG | -0.0338
CTCAAAGA | -0.088
ATATGCAT | 0.021
AGCACATG | 0.0444
CAGGTCCC | -0.205
GTATAGTA | 0.129
AGAGTGTC | -0.0328
GAATATAC | 0.0463
CGATTGGA | -0.00974
GTCGTCAA | 0.222
ATGAAGTA | 0.0372
AGTTCAGC | -0.0941
CCTCACAA | -0.12
AATCTCGT | 0.156
TAAAAATA | 0.162
AACAACAG | -0.158
CAAGGACA | -0.0527
AATCGACG | 0.217
ATATCTTG | 0.208
GGGCACTA | -0.00085
ACTATAAA | 0.0924
ACCGGACG | -0.0917
CGTATTGA | 0.307

Given tab-delimited: entries from further up.
Sequence	PBM E-score
CCTCACAA	-0.12
TAAAAATA	0.162

The list continues:

Sequence | PBM E-score
AAGAATGC | -0.0612
ACCCTCCG | -0.144
CATAGTCG | 0.111
CTGGTAGC | -0.0656
ATATGGAA | -0.00864
CGTCAAAA | 0.244
GTGGTAAC | 0.177
AGCGCTTG | -0.119
CGCAATAA | 0.0869
ATGTGTGC | -0.128
CTTGCGGA | -0.00084
TAGTGCAA | 0.113
CATAACGA | 0.0819
AAGGGAAC | -0.341
ACGGCCGT | 0.121
GGACCGAA | 0.064
ATCTAAGA | -0.0332
ACGTAACA | -0.0692
ATTACAGG | 0.0689
ATGACAGA | 0.128
AACTACGT | -0.0112
GTTAGCCA | -0.0295
